Reference: paper PMC9167922
These are yes or no findings as the source states them, for the method shown. Binding seen in cells or lysates may run through a third protein. Some entries that bind do so weakly or less than the wild type.

Chains of the proteins cited; added tags and fusions are not shown. Lines headed by an entry give the natural chain unless they say otherwise; changes in a name come on top.
UniProt Q01814: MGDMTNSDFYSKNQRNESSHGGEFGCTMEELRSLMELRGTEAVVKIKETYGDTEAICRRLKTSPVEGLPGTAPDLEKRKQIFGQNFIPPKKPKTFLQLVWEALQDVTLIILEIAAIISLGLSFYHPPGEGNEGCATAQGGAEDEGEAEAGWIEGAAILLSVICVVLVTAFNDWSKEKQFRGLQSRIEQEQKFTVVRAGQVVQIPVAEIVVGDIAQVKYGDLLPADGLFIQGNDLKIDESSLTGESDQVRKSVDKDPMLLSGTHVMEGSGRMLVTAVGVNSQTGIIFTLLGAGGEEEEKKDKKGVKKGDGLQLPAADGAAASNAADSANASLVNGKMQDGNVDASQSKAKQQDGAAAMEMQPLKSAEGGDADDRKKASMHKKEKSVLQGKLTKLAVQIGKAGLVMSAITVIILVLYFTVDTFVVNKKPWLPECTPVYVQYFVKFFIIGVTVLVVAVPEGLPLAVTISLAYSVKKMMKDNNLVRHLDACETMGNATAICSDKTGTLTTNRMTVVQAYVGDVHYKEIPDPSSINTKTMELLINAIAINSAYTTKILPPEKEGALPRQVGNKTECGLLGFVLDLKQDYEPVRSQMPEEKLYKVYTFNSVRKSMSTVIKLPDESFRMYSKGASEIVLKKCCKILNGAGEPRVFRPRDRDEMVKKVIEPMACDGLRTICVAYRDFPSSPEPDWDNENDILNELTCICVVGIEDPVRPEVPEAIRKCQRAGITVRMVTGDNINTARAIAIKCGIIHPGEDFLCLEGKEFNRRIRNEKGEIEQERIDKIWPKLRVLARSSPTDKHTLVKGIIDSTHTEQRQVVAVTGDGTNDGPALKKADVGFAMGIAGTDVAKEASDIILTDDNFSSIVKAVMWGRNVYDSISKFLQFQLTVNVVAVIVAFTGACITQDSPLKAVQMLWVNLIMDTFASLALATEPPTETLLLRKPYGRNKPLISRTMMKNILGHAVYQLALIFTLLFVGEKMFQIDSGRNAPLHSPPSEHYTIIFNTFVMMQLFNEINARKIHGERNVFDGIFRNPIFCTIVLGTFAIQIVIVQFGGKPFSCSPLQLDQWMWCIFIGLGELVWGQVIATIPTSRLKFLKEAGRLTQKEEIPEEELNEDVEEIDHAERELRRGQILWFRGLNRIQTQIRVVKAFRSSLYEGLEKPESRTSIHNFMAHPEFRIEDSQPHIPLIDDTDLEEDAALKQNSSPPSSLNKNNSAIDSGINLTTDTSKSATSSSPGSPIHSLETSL

Target: PMCA2b fused to GFP (plasma membrane Ca2+-ATPase isoform 2, splice variant b) (UniProt Q01814)
Assay: co-IP; Lysates of differentiating H19-7 cells expressing PMCA2b-GFP, treated with saline or ketamine (274 uM, 48 h). Precipitated with anti-PMCA2 antibodies and blotted for NMDAR1. Controls: IgG and sepharose beads only.

binding: binds
Substance: NMDA receptor subunit NMDAR1 (from UniProt P35439-1 19-938)
